# Reference: the supplement of paper PMC12819154, “High-throughput peptide-centric local stability assay extends protein–ligand identification to membrane proteins, tissues and bacteria” (Nature Structural & Molecular Biology, 2025)
# Amino acid sequences for entries named in this document (tags omitted). A change or cut given only in a name is not applied to a line headed by its entry.
# UniProt Q3KNV8: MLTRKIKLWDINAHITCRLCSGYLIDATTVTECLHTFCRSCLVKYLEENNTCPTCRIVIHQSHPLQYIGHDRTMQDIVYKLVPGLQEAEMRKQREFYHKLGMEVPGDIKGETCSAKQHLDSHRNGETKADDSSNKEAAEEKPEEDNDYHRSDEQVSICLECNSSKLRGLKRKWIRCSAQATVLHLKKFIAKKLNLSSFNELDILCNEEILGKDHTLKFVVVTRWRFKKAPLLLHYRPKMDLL
# UniProt Q16698: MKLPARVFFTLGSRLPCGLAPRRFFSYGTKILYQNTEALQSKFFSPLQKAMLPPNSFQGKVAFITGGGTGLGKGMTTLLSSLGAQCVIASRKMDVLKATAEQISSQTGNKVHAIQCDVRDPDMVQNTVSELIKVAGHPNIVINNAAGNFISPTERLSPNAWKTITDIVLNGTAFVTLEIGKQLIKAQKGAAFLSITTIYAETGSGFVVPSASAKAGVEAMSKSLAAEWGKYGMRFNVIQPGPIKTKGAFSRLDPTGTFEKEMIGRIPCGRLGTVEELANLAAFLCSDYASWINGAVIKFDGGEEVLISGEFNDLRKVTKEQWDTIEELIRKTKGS
# UniProt Q3LXA3: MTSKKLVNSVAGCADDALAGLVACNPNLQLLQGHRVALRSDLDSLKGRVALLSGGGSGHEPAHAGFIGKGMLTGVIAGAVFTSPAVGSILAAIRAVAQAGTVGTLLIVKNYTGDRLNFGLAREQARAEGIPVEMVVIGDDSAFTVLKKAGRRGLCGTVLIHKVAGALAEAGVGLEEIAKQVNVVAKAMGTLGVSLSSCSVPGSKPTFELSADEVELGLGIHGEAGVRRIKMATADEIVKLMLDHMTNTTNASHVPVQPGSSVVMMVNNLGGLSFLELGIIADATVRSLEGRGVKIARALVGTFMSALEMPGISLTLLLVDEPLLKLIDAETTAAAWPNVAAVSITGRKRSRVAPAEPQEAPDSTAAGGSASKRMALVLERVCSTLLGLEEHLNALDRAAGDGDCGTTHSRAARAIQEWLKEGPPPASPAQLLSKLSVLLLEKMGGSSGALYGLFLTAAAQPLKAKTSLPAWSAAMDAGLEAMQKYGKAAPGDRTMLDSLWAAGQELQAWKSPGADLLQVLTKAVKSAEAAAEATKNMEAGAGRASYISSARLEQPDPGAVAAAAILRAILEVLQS
# UniProt Q16533: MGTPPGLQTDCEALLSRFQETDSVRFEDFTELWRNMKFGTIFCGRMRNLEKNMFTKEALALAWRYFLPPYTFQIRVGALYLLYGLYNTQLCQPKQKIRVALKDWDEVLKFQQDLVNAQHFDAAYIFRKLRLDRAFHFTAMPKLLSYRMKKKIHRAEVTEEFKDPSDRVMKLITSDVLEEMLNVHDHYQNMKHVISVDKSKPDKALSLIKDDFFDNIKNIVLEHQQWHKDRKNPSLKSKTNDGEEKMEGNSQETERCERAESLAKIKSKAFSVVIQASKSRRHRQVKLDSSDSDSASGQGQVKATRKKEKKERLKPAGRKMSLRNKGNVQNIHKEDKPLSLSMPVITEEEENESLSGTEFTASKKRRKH
# UniProt Q15723: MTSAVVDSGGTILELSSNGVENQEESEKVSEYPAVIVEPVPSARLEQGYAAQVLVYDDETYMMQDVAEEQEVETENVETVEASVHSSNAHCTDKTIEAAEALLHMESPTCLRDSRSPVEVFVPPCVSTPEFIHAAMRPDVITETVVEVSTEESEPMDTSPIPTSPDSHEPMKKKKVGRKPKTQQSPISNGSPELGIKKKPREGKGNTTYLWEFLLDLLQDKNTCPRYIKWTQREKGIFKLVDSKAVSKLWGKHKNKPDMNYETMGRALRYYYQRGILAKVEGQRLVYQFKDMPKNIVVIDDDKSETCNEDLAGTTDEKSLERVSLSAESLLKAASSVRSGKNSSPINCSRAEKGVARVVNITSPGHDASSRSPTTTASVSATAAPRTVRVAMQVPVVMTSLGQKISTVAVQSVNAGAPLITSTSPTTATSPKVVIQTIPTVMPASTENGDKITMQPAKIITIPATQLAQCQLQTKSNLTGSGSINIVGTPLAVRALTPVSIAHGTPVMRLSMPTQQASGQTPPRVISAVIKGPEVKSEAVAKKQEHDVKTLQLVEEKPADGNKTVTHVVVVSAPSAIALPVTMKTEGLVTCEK
# UniProt Q15813: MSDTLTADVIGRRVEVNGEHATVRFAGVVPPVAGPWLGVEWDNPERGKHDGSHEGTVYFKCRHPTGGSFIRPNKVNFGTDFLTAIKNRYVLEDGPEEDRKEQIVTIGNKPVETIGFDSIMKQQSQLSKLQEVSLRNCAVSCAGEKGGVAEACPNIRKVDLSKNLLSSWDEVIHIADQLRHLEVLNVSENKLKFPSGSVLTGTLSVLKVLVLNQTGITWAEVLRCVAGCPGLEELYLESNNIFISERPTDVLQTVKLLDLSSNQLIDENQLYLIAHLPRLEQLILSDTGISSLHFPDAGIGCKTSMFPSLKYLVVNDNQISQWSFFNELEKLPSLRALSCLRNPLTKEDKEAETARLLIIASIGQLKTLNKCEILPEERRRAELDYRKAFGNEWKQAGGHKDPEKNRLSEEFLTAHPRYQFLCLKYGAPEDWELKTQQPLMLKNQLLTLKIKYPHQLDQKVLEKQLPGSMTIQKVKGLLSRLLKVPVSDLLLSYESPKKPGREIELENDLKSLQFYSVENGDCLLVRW
# UniProt Q15233: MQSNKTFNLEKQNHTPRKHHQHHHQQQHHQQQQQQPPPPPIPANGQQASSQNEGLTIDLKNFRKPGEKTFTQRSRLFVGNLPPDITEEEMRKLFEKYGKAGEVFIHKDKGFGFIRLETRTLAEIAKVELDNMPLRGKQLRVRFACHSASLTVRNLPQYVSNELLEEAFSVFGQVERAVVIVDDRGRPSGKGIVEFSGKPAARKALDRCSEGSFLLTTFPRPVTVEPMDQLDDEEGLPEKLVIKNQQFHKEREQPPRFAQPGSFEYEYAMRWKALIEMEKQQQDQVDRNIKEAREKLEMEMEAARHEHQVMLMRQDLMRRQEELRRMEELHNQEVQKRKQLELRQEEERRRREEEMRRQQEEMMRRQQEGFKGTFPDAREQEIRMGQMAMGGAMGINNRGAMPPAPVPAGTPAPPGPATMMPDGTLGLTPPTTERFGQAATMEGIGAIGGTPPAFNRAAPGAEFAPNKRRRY
# UniProt Q16643: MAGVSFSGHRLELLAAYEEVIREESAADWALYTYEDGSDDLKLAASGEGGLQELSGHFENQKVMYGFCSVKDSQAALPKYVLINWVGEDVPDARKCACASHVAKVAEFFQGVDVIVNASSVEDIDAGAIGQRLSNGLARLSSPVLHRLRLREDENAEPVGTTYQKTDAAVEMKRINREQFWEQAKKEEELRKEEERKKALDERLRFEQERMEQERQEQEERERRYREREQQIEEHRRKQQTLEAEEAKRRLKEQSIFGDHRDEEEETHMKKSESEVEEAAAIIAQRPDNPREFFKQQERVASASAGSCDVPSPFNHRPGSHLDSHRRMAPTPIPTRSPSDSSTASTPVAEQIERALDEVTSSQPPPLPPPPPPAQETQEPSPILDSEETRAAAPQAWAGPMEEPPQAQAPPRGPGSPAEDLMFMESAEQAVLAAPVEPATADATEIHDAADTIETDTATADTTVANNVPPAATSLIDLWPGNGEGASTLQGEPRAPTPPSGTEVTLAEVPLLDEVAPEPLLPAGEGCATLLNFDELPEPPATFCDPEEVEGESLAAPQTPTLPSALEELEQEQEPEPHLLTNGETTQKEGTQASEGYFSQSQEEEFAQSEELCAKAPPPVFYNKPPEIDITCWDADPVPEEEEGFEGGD
# UniProt Q2M296: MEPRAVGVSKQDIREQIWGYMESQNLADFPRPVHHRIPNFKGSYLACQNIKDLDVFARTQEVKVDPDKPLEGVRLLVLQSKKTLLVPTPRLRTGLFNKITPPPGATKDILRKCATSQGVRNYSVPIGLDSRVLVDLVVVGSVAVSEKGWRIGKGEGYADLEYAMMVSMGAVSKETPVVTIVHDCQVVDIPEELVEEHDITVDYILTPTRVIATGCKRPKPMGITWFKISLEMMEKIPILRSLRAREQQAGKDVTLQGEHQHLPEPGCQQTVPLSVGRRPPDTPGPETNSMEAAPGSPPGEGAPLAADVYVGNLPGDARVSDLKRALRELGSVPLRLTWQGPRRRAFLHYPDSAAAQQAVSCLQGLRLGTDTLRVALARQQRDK
# UniProt Q15834: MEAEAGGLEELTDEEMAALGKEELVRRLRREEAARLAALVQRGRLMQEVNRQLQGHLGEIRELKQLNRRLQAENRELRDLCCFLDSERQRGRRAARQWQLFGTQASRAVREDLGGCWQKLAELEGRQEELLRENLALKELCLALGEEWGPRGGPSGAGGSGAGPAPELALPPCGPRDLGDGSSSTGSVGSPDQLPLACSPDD
# UniProt Q1A5X7: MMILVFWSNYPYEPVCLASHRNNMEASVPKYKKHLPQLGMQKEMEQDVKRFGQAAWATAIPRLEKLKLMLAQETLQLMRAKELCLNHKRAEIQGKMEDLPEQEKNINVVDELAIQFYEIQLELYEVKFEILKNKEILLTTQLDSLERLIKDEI
# UniProt Q15527: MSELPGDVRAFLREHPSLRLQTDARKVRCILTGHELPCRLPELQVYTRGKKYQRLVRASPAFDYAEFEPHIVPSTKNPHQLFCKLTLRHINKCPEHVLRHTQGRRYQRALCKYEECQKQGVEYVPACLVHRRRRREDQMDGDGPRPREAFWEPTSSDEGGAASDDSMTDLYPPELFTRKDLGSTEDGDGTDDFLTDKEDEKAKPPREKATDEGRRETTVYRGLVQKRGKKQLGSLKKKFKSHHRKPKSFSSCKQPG
# UniProt Q2NKX9: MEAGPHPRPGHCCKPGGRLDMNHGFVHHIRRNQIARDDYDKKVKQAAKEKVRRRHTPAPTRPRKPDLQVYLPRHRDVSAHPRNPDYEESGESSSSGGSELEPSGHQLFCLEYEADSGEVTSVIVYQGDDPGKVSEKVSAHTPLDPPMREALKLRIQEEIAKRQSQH
# UniProt Q15819: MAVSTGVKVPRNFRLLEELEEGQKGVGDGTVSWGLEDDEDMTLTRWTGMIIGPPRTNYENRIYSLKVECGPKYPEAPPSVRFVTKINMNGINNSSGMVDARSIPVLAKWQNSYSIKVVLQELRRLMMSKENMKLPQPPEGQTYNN
# UniProt Q2YD98, whole entry: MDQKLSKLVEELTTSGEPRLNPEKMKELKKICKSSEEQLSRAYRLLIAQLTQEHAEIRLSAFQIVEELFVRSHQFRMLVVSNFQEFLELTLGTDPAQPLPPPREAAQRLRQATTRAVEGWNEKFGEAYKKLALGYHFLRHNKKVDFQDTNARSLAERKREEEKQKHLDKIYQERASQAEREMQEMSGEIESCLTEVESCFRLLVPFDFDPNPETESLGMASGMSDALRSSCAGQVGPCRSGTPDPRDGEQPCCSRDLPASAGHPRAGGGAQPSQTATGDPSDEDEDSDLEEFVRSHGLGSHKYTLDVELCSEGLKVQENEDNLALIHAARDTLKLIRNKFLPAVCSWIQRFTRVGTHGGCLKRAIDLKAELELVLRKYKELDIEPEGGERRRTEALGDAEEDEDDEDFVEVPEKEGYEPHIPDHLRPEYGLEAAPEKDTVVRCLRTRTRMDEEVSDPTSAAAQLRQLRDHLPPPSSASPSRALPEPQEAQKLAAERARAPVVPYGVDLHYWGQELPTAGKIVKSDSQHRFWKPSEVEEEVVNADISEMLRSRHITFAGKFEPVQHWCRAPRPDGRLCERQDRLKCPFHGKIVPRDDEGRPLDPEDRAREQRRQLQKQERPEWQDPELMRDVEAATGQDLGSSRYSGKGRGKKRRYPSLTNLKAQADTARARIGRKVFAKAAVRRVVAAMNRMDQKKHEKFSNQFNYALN
# UniProt Q309B1, whole entry: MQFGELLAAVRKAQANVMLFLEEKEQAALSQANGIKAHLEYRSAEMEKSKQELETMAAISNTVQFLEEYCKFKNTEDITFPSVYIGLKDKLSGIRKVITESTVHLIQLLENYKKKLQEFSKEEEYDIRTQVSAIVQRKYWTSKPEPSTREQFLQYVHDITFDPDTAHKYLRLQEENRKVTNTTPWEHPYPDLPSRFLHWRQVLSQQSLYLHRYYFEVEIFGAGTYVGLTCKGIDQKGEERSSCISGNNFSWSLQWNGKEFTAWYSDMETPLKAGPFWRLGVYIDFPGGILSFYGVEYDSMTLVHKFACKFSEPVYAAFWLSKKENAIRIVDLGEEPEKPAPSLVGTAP
# UniProt Q3ZCT1: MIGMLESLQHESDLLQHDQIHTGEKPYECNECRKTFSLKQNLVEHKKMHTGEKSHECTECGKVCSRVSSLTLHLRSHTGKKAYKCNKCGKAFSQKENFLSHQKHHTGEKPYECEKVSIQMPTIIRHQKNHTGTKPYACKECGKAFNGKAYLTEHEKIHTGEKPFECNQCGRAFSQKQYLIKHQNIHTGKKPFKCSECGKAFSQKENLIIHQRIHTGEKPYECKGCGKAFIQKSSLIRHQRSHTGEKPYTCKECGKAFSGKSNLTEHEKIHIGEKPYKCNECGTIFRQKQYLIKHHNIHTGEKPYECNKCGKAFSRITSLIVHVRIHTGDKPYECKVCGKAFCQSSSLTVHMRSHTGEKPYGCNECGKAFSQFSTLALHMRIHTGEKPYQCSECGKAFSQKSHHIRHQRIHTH
# This is one part of the list. Small differences around the control level are noise.
# Compound: CN[C@@H]1C[C@H]2O[C@@](C)([C@@H]1OC)n1c3ccccc3c3c4c(c5c6ccccc6n2c5c31)C(=O)NC4 [staurosporine]
# Assay: log2 fold change of tryptic peptide abundance, ligand vs vehicle (limited proteolysis) (log2 ratio); higher = more trypsin-susceptible (destabilized)
# Details: ligand concentration: 20 uM; sample: K562 cleared lysate; digestion: 4 min, 22 C (HT-PELSA RT4min, Orbitrap Astral)
row,Target,log2 fold change
1,"UniProt Q2VPK5 (peptide sequence: EVAFYNR, peptide start residue: 314)",0.218
2,"UniProt Q2M389 (peptide sequence: LDDRNPFKVGMK, peptide start residue: 694)",0.916
3,"PCGF3 (peptide sequence: LVPGLQEAEMR, peptide start residue: 81) (UniProt Q3KNV8)",0.0884
4,"DECR1 (peptide sequence: VHAIQCDVRDPDMVQNTVSELIK, peptide start residue: 111) (UniProt Q16698)",0.448
5,"UniProt Q3LXA3 (peptide sequence: VCSTLLGLEEHLNALDR, peptide start residue: 381)",0.139
6,"VPS72 (peptide sequence: PALYRDPVTDIPYATAR, peptide start residue: 298) (UniProt Q15906)",0.631
7,"CCDC88A (peptide sequence: MVQSSPPISGEDNKWER, peptide start residue: 1016) (UniProt Q3V6T2)",-0.366
8,"UniProt Q2VY69 (peptide sequence: NLLSVGHQLSHR, peptide start residue: 43)",-0.98
9,"SNAPC1 (peptide sequence: MEGNSQETERCER, peptide start residue: 246) (UniProt Q16533)",-0.944
10,"ELF2 (peptide sequence: TEGLVTCEK, peptide start residue: 585) (UniProt Q15723)",-0.347
11,"TBCE (peptide sequence: VEVNGEHATVR, peptide start residue: 14) (UniProt Q15813)",0.741
12,"NONO (peptide sequence: LFVGNLPPDITEEEMRK, peptide start residue: 76) (UniProt Q15233)",-0.399
13,"DBN1 (peptide sequence: TDAAVEMK, peptide start residue: 166) (UniProt Q16643)",-0.143
14,"SKIV2L (peptide sequence: DMSVVEGGLR, peptide start residue: 992) (UniProt Q15477)",0.504
15,"MTHFSD (peptide sequence: ITPPPGATK, peptide start residue: 99) (UniProt Q2M296)",-0.469
16,"CCDC85B (peptide sequence: EDLGGCWQK, peptide start residue: 111) (UniProt Q15834)",0.267
17,"UniProt Q1A5X7 (peptide sequence: FGQAAWATAIPR, peptide start residue: 324)",-0.0431
18,"SURF2 (peptide sequence: SELPGDVR, peptide start residue: 2) (UniProt Q15527)",0.169
19,"NDUFA9 (peptide sequence: FGPIPLGSLGWK, peptide start residue: 223) (UniProt Q16795)",0.477
20,"HAGH (peptide sequence: HVEPGNAAIR, peptide start residue: 233) (UniProt Q16775)",0.0986
21,"C2orf68 (peptide sequence: VSAHTPLDPPMR, peptide start residue: 137) (UniProt Q2NKX9)",0.0991
22,"UniProt Q3YEC7 (peptide sequence: MFSALKK, peptide start residue: 1)",0.0798
23,"UBE2V2 (peptide sequence: YPEAPPSVR, peptide start residue: 73) (UniProt Q15819)",0.187
24,"SMAD1 (peptide sequence: EVCINPYHYK, peptide start residue: 120) (UniProt Q15797)",0.166
25,"UniProt Q2YD98 (peptide sequence: AELELVLR, peptide start residue: 369)",-0.193
26,"UniProt Q309B1 (peptide sequence: LQEENRK, peptide start residue: 388)",-0.0326
27,"STXBP2 (peptide sequence: HMHIADVSKK, peptide start residue: 293) (UniProt Q15833)",0.87
28,"UniProt Q3ZCT1 (peptide sequence: CNECGTIFR, peptide start residue: 278)",0.0639
29,"UniProt Q15149 (peptide sequence: AEEAEAQKR, peptide start residue: 1619)",-0.968

# Some of the entries above in a different format:
row	Target	log2 fold change
14	SKIV2L (peptide sequence: DMSVVEGGLR, peptide start residue: 992) (UniProt Q15477)	0.504
25	UniProt Q2YD98 (peptide sequence: AELELVLR, peptide start residue: 369)	-0.193
